PubChem BioAssay AID1259254 – NCATS, 2017
This is an unselected part of about 59,000 deposited reagents. About 1,550 of all reagents (2.6%) count as active. 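G2 share is only a proxy for re-replication; each gene was hit by three separate siRNAs, and active genes were retested.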 Reagents against one gene are numbered here. Not all columns of the deposit are shown. The record does not give: the amount of reagent.

Aim: 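Finding genes that stop cells copying their DNA twice in one cycle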 (primary screen)
Cells: human HCT116 colorectal cancer cells
Reagents: single siRNA against human genes
Time to read-out: 3 days
Measured: 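Nuclei stained with Hoechst and imaged; cell-cycle phase assigned by DNA content; G2 share scaled per plate, non-targeting siRNA 0%, GMNN siRNA 100%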
Reading the numbers: G2 robust z-score: higher = more G2 cells, more excess DNA replication
Active means: 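An siRNA counts as active if its G2 robust z-score lies at least 5 MADs above the screen median; here such calls match roughly 38% of GMNN control or more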

IRAK1 #1 — G2 robust z-score: -0.039; call: inactive
IRAK1 #2 — G2 robust z-score: -1.07; call: inactive
IRAK1 #3 — G2 robust z-score: -0.0747; call: inactive
CACNA1B #1 — G2 robust z-score: 0.811; call: inactive
CACNA1B #2 — G2 robust z-score: 2.94; call: inactive
CACNA1B #3 — G2 robust z-score: 0.551; call: inactive
MAN1C1 #1 — G2 robust z-score: -0.663; call: inactive
MAN1C1 #2 — G2 robust z-score: -1.31; call: inactive
MAN1C1 #3 — G2 robust z-score: -0.722; call: inactive
GP5 #1 — G2 robust z-score: 0.719; call: inactive
GP5 #2 — G2 robust z-score: -1.14; call: inactive
GP5 #3 — G2 robust z-score: 1.68; call: inactive
